The other results are listed elsewhere or left out. Values are raw readings; no control value is given beside them.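 In the initial screen, polymyxin B was used at a concentration that permeabilizes Salmonella's outer membrane but not its inner membrane. Maximum growth was set by DMSO wells with or without polymyxin B. Since plates varied, data were ranked per plate, and compounds giving the lowest OD600 advanced as hits.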
System: Salmonella enterica serovar Typhimurium SL1344
Experiment: bacterial growth OD600 after 18 h with compound and polymyxin B; higher = more bacterial growth (less inhibition)
Conditions: 50 µM, Mueller-Hinton broth

Compound | bacterial growth OD600 (polymyxin B 1 µg/mL) | bacterial growth OD600 (polymyxin B 0.75 µg/mL)
COc1ccc(NC(=O)CCC2CCCN(C(=O)C3=NN(C)C(=O)CC3)C2)cc1Cl (stereo unspecified) | 1.23 | 
CC(C)=CC(=O)N1CCCC(N2CCN(c3ccccc3C)CC2)C1 (stereo unspecified) | 0.857 | 
COc1cc(CN(C(=O)c2ccccc2F)[C@H]2CCCCNC2=O)ccc1OCCc1scnc1C |  | 0.97
O=C(c1cn(CC2COc3ccccc3O2)nn1)N1CCC2(C=Cc3ccccc32)CC1 (stereo unspecified) | 0.008 | 
CSCC(=O)N1CCC2(CCCN(Cc3ccccc3F)C2=O)C1 (stereo unspecified) | 0.976 | 
COc1ccc(C(=O)NC2CC2)cc1OC1CCN(CC2CC2)CC1 | 1.11 | 
COCC(=O)Nc1cc(C(=O)N2CCC(c3ccccc3F)C2)cc2nc(-c3cccnc3)n(C)c12 (stereo unspecified) |  | 0.797
CCCOC1CCCN(C(=O)c2cc(Cn3nc(C)cc3C)[nH]n2)C1 (stereo unspecified) | 1.15 | 
CCOC(=O)N1CCN(C(=O)c2ccc(N3CCC(NCCN4CCCCC4)CC3)cc2)CC1 |  | 0.829
CS(=O)(=O)NCc1cccnc1N1CCCCCCC1 | 0.928 | 
Cn1nc(C(=O)N2CCCC(CCc3ccccc3F)C2)ccc1=O (stereo unspecified) |  | 0.859
OCCOc1ccc(CN2CCOc3ccc(C(O)Cc4ccccc4)cc3C2)cc1 (stereo unspecified) |  | 0.721
COc1ccccc1CCC(=O)Nc1cnn(CC(=O)N2CCC(c3ccccc3Cl)C2)c1 (stereo unspecified) |  | 0.904
C=CCC(=O)N1CCC(Oc2ccc(C(=O)NCCc3ccccc3)cc2)CC1 | 0.906 | 
Cc1cc(C)n(CCC(=O)NC2CCCN(c3ncccn3)C2)n1 (stereo unspecified) | 1.05 | 
Cc1c(-c2ccc(F)cc2)[nH]c2ccc(CNC(=O)C(C)(C)O)cc12 |  | 0.178

Reprinted from the listing, seven compounds:
Compound | bacterial growth OD600 (polymyxin B 1 µg/mL) | bacterial growth OD600 (polymyxin B 0.75 µg/mL)
CC(C)=CC(=O)N1CCCC(N2CCN(c3ccccc3C)CC2)C1 (stereo unspecified) | 0.857 | 
COc1cc(CN(C(=O)c2ccccc2F)[C@H]2CCCCNC2=O)ccc1OCCc1scnc1C |  | 0.97
O=C(c1cn(CC2COc3ccccc3O2)nn1)N1CCC2(C=Cc3ccccc32)CC1 (stereo unspecified) | 0.008 | 
CSCC(=O)N1CCC2(CCCN(Cc3ccccc3F)C2=O)C1 (stereo unspecified) | 0.976 | 
COc1ccc(C(=O)NC2CC2)cc1OC1CCN(CC2CC2)CC1 | 1.11 | 
COCC(=O)Nc1cc(C(=O)N2CCC(c3ccccc3F)C2)cc2nc(-c3cccnc3)n(C)c12 (stereo unspecified) |  | 0.797
CCCOC1CCCN(C(=O)c2cc(Cn3nc(C)cc3C)[nH]n2)C1 (stereo unspecified) | 1.15 | 

(next part)

Compound | bacterial growth OD600 (polymyxin B 1 µg/mL) | bacterial growth OD600 (polymyxin B 0.75 µg/mL)
CN1CCN(c2nc3nonc3nc2NCc2cccs2)CC1c1ccccc1 (stereo unspecified) | 1.08 | 
CCOc1ccccc1CN1CCC(CCC(=O)Nc2ccc(OC)cc2OC)CC1 |  | 0.817
CCCc1ccc2oc(C(=O)N3CCCC(C(=O)c4cccnc4)C3)c(C)c2c1 (stereo unspecified) |  | 0.343
C=C(C)CNC(=O)c1oc2ccc(CCC)cc2c1C | 0.431 | 
C=CCS(=O)(=O)N1CCCC(Cc2ccccc2)(C(=O)OCC)C1 (stereo unspecified) | 0.875 | 
COCCn1cnc2cc(NC(=O)C3CCCCC3)cc(C(=O)N3CCCC(OC)C3)c21 (stereo unspecified) |  | 0.882
CCCS(=O)(=O)N1C[C@H]2OC(=O)N(CCc3cccc(Cl)c3)[C@H]2C1 | 0.9 | 
Cc1ccccc1N1CCN(C2CCCN(C(=O)c3cccc(F)c3)C2)CC1 (stereo unspecified) | 0.728 | 
Cc1ncc2c(c1CNS(=O)(=O)c1ccsc1)CCN(C(=O)Cc1ccccc1Cl)C2 |  | 0.717
Cc1cccc(CN2CCC(n3nccc3NC(=O)c3ccc4c(c3)OCO4)CC2)n1 | 0.91 | 
CO[C@H]1[C@H](NC(=O)c2ccccn2)c2ccccc2C12CCN(C(=O)[C@@H](O)c1ccccc1)CC2 |  | 0.816
Cc1ccccc1CCN1CCCC(CN(C)C(=O)c2csc(C(C)C)n2)C1 (stereo unspecified) | 0.623 | 
O=C(CC(c1cccc(O)c1)c1ccccc1Cl)N1CCOCC1 (stereo unspecified) | 0.782 | 
O=C(NCC1CCCN(C(=O)c2ccc(F)c(F)c2)C1)c1cccc2ccccc12 (stereo unspecified) | 0.909 | 
CS(=O)(=O)N1CCC(Oc2cccc(C(=O)NC3Cc4ccccc4C3)c2)CC1 | 0.854 | 
